PubChem BioAssay AID1508597, Cure First | 2020

Assay: 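Genes whose silencing sensitises or protects ovarian cancer cells against rucaparib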 (primary screen)
Cell system: human ovarian carcinoma lines grown from tumours: OCI-P5x (papillary serous) and OCI-C5x (clear cell)
Reagents: siRNA pool against human genes, 1.25 pmol siRNA per well
Time to read-out: 72 h or 96 h, depending on the cell culture
Conditions: rucaparib 20 µM (about IC30) or vehicle, present until read-out
Rucaparib or vehicle: Vehicle
Cell line: OCI-P5x (serous)
Read-out: 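Luminescent ATP-based viability assay read 72 or 96 h after transfection, depending on culture, given as normalised percent viability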
Direction: viability, normalised: higher = more viable cells remaining
Call rule: 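a well counts as a hit if its normalised viability is under 80 percent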
Calls: active = viability under 80%; inactive = viability 80% or more
Shown is an unselected part of the about 2,100 reagents, in one setting of the screen. 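Calls flag viability under 80% in either arm, not effects specific to rucaparib; the reference for percent is not stated.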 Unmarked entries are inactive. Not stated in the record: the 100% reference.

ENPP4 [SID405526669], technical replicate 1
- viability, normalised (%): 38.7 (active)

ENPP4 [SID405526669], technical replicate 2
- viability, normalised (%): 25.2 (active)

ENPP4 [SID405526669], technical replicate 3
- viability, normalised (%): 28 (active)

FLT3 [SID405527710], technical replicate 1
- viability, normalised (%): 76 (active)

FLT3 [SID405527710], technical replicate 2
- viability, normalised (%): 49 (active)

FLT3 [SID405527710], technical replicate 3
- viability, normalised (%): 61.5 (active)

MYLK2 [SID405527865], technical replicate 1
- viability, normalised (%): 59.9 (active)

MYLK2 [SID405527865], technical replicate 2
- viability, normalised (%): 59.3 (active)

MYLK2 [SID405527865], technical replicate 3
- viability, normalised (%): 64.1 (active)

NAP1L3 [SID405527058], technical replicate 1
- viability, normalised (%): 47.6 (active)

NAP1L3 [SID405527058], technical replicate 2
- viability, normalised (%): 45.8 (active)

NAP1L3 [SID405527058], technical replicate 3
- viability, normalised (%): 47.9 (active)

Sorted by “viability, normalised (%)” (lowest first): 2 of the entries above.
ENPP4 [SID405526669], technical replicate 2
- viability, normalised (%): 25.2 (active)

ENPP4 [SID405526669], technical replicate 1
- viability, normalised (%): 38.7 (active)
